# Measurements reported in paper PMC11217373.
# Construct, isoform or probe ends are uncertain for at least one entry. At least one verdict rests on a figure or table, not on a statement of the authors. Where a protein sequence is shown, tags need not be part of it.
# Key:
# [1] = biological target: T1, GST-CTCF-ZF-wt (ZF1-11) (Mus musculus (cDNA of mESCs)) (UniProt Q61164); test: GST pull-down, dot blot; settings: pull-down: 6-12 h with glutathione agarose, washed in PBS + 1% Triton X-100, recombinant protein, residues 260-583, protein details: N-terminal GST (pGEX-4T-2)
# T1 sequence (looked up): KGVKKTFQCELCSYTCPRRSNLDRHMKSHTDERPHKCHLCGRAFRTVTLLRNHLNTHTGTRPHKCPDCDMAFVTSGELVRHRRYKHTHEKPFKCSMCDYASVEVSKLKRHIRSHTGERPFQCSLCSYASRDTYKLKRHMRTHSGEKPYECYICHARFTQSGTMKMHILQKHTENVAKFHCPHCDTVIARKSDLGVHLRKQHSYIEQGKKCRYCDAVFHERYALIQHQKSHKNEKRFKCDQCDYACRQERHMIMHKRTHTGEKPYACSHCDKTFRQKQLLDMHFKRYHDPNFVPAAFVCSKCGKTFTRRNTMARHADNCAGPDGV
# [2] = biological target: T1, GST-CTCF-ZF-wt (ZF1-11) (Mus musculus (cDNA of mESCs)); test: EMSA; settings: EMSA: Beyotime GS009 kit buffer, 10-20 min at RT, 5% native PAGE in ice-cold 0.5x TBE, recombinant protein, residues 260-583, protein details: N-terminal GST (pGEX-4T-2)
sequence,measurement,setting,value
CTTTTTGGTGCCCTCTGCTGGCCACTGGAGGACCGAAAGTTTAG (double strand) [M1+M2 (mut) (mutant U+C motif)],binding result,[1]; label: biotin (pull-down),binds
CTTTTGGAACTGCAGTTTAG (double strand) [M2 (U motif)],binding result,[2]; label: Cy5 or biotin on M2-F,binds
same,binding result,[1]; label: Cy5 or biotin on M2-F,binds
CTTTTTGGTGCCCTCTGCTGGCCAGTTTAG (double strand) [M1 (C motif)],binding result,[2]; label: Cy5 or biotin on M1-F,binds
same,binding result,[1]; label: Cy5 or biotin on M1-F,binds
CTTTTTGGTGCCCTCTGCTGGCCACTGGAGGAACTGCAGTTTAG (double strand) [M1+M2 (U+C motif)],binding result,"[1]; label: biotin (pull-down, Cy5 version listed) on F strand",binds
